This is an account of results in PMC12032945, “Estrogenic activity of E2-conjugated GLP-1 is mediated by intracellular endolysosomal acidification and estrone metabolism” (Molecular Metabolism, 2025).

Amino acid sequences for entries named in this document (tags omitted). Residues count along the entry.
UniProt P43220, residues 24-463: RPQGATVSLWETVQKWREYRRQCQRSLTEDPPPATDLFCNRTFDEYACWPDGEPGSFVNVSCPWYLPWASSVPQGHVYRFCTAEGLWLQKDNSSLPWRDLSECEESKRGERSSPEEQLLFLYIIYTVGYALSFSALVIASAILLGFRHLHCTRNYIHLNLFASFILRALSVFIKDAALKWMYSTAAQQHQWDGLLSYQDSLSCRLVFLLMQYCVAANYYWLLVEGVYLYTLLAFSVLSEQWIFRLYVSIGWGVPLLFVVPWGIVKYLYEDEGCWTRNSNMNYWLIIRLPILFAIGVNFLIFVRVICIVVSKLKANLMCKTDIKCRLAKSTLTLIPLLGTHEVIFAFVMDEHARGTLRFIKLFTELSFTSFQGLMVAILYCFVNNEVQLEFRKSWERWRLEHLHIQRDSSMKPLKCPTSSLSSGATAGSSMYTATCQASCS
UniProt P49407: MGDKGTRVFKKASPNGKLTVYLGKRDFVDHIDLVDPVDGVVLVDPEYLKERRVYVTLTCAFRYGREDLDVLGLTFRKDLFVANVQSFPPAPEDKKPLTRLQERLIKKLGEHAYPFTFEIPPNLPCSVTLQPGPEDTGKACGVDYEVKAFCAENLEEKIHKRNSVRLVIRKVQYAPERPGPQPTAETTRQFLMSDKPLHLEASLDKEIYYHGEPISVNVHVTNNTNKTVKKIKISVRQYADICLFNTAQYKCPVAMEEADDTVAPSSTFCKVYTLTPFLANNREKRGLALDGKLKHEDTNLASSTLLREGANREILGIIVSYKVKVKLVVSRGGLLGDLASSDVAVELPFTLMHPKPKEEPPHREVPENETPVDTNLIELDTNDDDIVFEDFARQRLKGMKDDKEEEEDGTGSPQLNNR
UniProt P32121: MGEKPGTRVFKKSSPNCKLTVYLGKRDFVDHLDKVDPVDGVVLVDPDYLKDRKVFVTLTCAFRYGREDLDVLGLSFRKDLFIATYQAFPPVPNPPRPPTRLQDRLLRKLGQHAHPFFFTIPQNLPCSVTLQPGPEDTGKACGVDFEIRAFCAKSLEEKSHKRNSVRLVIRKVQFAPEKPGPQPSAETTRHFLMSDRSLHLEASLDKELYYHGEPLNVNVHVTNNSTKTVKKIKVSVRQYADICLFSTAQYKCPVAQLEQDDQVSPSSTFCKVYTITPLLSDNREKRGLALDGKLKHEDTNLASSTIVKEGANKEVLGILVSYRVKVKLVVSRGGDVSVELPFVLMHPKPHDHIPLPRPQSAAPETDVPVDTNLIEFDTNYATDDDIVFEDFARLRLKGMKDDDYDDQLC

No constants are given. Whether binding was seen depends on the method and setting. Binding seen in cells or lysates may run through a third protein. Some binding calls cover weakened binding; strength is not graded here.

The experiment has as its target Human GLP-1R-GFP (human) (UniProt P43220). Nature of the experiment: FRET or BRET.

As to “β-arrestin-1-Rluc8 (from UniProt P49407 1-418)”, the binding result is recorded as “binds”.

Consider “β-arrestin-2-Rluc8 (from UniProt P32121 1-409)”, for which the binding result was “binds”.
